Data: publication PMC11075139 (RSC Advances, 2024)

Conditions: PAMPA

CC(C)NCC(O)COc1ccc(CC(N)=O)cc1 (centres unmarked) [Atenolol]
Prediction of CNS penetration: No (key: High: ‘CNS+’ (prediction of high BBB permeation); Pe (10^−6 cm s^−1) > 4.39; No: ‘CNS−’ (prediction of low BBB permeation); Pe (10^−6 cm s^−1) < 1.78)

CN1C(=O)CN=C(c2ccccc2)c2cc(Cl)ccc21 [Diazepam]
Prediction of CNS penetration: High (key: High: ‘CNS+’ (prediction of high BBB permeation); Pe (10^−6 cm s^−1) > 4.39; No: ‘CNS−’ (prediction of low BBB permeation); Pe (10^−6 cm s^−1) < 1.78)
